No constants are given. Whether binding was seen depends on the method and setting. Binding seen in cells or lysates may run through a third protein. Sequences can lack the tags named with a protein.
Molecular target: HA-tagged LRR domain of LRRFIP2
Assay: co-IP

B1: Flag-TRB3 (protein, UniProt Q8K4K2 1-354)
chain: MRATPLAASADVSCRKKPLEFDDNIDAKCPVLKRVRDEPEPGPLPSLLPPSPPPASDLSPAVAPATRLGPYILLEREQGSCSYRALHCPTGTEYTCKVYPASEAQAVLAPYARLPTHQHVARPTEVLLGSRLLYIFFTKTHGDLHSLVRSRRGIPESEAAGLFRQMASAVAHCHKHGLVLRDLKLRRFVFSNCERTKLVLENLEDACVMTGSDDSLWDKHACPAYVGPEILSSRPSYSGKAADVWSLGVALFTMLAGRYPFHDSEPVLLFGKIRRGTFALPEGLSAPARCLIRCLLRKEPSERLVALGILLHPWLREDHGRVSPPQSDRREMDQVVPDGPQLEEAEEGEVGLYG
  binding: no binding

Source: doi:10.1101/2022.10.09.511391
